Test results: patent publication US7652020B2, “Compounds for the treatment of inflammatory disorders” (Schering Corporation, priority 2004, dated 2010)

Protein sequences, listed by entry. Tags and fused reporters are not part of them. Residues count along the entry.
UniProt P78536, 215-477 S266A/N452Q limits assumed: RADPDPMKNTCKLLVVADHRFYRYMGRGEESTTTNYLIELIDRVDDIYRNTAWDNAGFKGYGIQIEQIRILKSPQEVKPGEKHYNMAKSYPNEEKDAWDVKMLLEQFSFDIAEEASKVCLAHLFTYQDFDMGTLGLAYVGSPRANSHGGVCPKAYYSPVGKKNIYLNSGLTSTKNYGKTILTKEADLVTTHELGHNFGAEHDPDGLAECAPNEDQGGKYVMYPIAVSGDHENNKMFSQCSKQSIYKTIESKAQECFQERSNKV

Molecular target: purified catalytic domain of recombinant human TACE (rhTACEc) (Homo sapiens, UniProt P78536, N452Q/S266A)
Experiment: TACE kinetic assay: cleavage of internally quenched peptide substrate SPDL-3, fluorescence
Assay type: biochemical
Conditions: TACE inhibitory activity, class symbols

| SMILES | Ki [nM] |
| --- | --- |
| CCOc1cc(F)ccc1-c1ccc(CNC(=O)C(O)C(O)C(=O)N2Cc3ccccc3C2(C)C)cc1 (stereo not shown) | 100 to 1000 |
| C[C@@H](NC(=O)[C@H](O)[C@@H](O)C(=O)N1Cc2cnc(N)nc2C1(C)C)c1ccc(-n2cccn2)cc1 | 20 to 100 |
| C[C@@H](NC(=O)[C@H](O)[C@@H](O)C(=O)N1Cc2nccnc2C1)c1ccc(-n2cccn2)cc1 | < 20 |
| CC#CCOc1cc([C@@H](C)NC(=O)[C@H](O)[C@@H](O)C(=O)N2CCC[C@@H]2c2csc(NC(C)C)n2)ccc1-n1cccn1 | < 20 |
| O=C(NCc1ccc(-c2ccccc2Oc2ccccc2)cc1)[C@H](O)[C@@H](O)C(=O)N1CCCC1 | 100 to 1000 |
| CC(C)(C)CCOc1cc(F)ccc1-c1ccc(CNC(=O)[C@H](O)[C@@H](O)C(=O)N2CCCC2)cc1 | 100 to 1000 |
| C[C@@H](NC(=O)[C@H](O)[C@@H](O)C(=O)N1C[C@H]2C[C@@H](C1)c1cccc(=O)n1C2)c1ccc(-n2cccn2)cc1 | 100 to 1000 |
| CCOc1cc(F)ccc1-c1ccc(C(C)(C)NC(=O)[C@H](O)[C@@H](O)C(=O)N2CCCC2)cc1 | > 1000 |
| C[C@@H](NC(=O)[C@](C)(O)[C@@H](O)C(=O)N1Cc2nccnc2C1)c1ccc(-n2cccn2)cc1 | < 20 |
| C[C@@H](NC(=O)[C@H](O)[C@@H](O)C(=O)N1CCOCC1c1ccccc1)c1ccc(-n2cccn2)cc1 (stereo partly shown) | < 20 |
| Cn1ccnc1[C@H](O)[C@@H](O)C(=O)NCC1CCN(c2ccccc2OC(F)(F)F)CC1 | 100 to 1000 |
| C[C@@H](NC(=O)[C@H](O)[C@@H](O)C(=O)N1CC=CC1c1cccc(Cl)c1)c1ccc(-n2cccn2)cc1 (stereo partly shown) | < 20 |
| N#Cc1nc(CNC(=O)[C@H](O)[C@@H](O)C(=O)N2Cc3ccccc3C2)ccc1-c1ccccc1OC(F)(F)F | > 1000 |

The match of structure and compound is tentative.
